{"source": "patent US9273006B2", "about": "“Anabolic compounds for treating and preventing bone loss diseases” (SYDDANSK UNIVERSITET, priority 2012, dated 2016)", "test_system": "hMSC-TERT", "test": "DNA microarray analysis under osteogenic culture conditions", "format": "cell-based, human", "settings": "25 μM, 24 hours after treatment", "data": [{"smiles": "CNCCNS(=O)(=O)c1cccc2cnccc12", "note": "[H-8, N-[2-(methylamino)ethyl]-5-isoquinolinesulfonamide]", "values": [{"measurement": "share of regulated genes that are skeletal development genes", "result": 19, "unit": "%"}]}]}
